Laboratory results from patent US8563503B2, “Antibiotic, its nucleotide sequence, methods of construction and uses thereof” (Protein Design Lab. Ltd., priority 2011, dated 2013).
For some assays here: At least one structure is not confirmed: it was looked up by name or label, or the drawing left a doubt. Some results were stated once for a whole list of compounds, not compound by compound.

Tests used:
Baumanii = assay: MIC by Agar Doubling Dilution Method, clinical isolates; type: cell-based; settings: Baumanii clinical strains
Method: (§1) (3) Culture Solution • MH Broth Culture Solution: 25 g was added into […] distilled water, heat to dissolve, subpackaged, autoclaved at 116° C. for 20 minutes, and MH Solid Culture Medium, 36 g was added into 1000 ml distilled water, autoclaved at 116° C. for 20 minutes, used for drug sensitive test of Gram-positive and negative aerobic bacteria. • Blood culture solution for Enterococcus faecalis, which was prepared by adding defibration rabbit blood into the MH culture solution by 5-10% and cultured at 37° C. in 5% CO2 for 24 hours. 2. Experimental Methods (1) The Measurement of Minimum Inhibitory Concentration (MIC) • The Minimum Inhibitory Concentration (MIC) of PMC-SA1 was measured by Agar Doubling Dilution Method. The bacterium was inoculated on the surface of agar plate containing different concentration of drugs by multipoint inoculate instrument (Deneley A400). The bacterial content per point was 10^5 CFU/ml. After incubated at 37° C. for 18-24 hours, the result can be observed. The least concentration of drugs in plate culture solution without bacterium growing was Minimum Inhibitory Concentration (MIC) of the drug to the said bacteria. 3. Results

E. coli = assay: as above; type: cell-based; settings: E. coli clinical strains
Method: as §1

[1] = Immunization of mice, valence of mouse sera by indirect ELISA; type: in vivo; settings: mice immunized i.p. with adjuvant, 50 μg per mouse, 5 times, two weeks interval
Method: Allosteric peptide of Colicin Ia, i.e. Ia′, PMC-SA1 obtained in embodiment 1, wild-type colicin Ia and the anti-Staphylococcus aureus peptide (ZL01128836.1) which invented by the present inventor were taken respectively to immunize mice. After admixturing with the adjuvant, the above proteins were interaperitonea injected respectively to the mice by 50 μg per mouse for one time of foundational quantity and 50 μg per mouse for one time of additional quantity totally 5 times by two weeks interval. Indirect ELISA detection method was applied to detect the valence of mouse sera (Xiao Yi, et. al., Preparation and preliminary characterization of monoclonal antibodies against Pheromonicin-and-Staphylococcus aureus, Shanxi Medical Journal, 35(1): 6-7, 32 (2006)). The valence of mouse sera which immunized by wild type colicin Ia as well as anti-Staphylococcus aureus polypeptide (ZL01128836.1) was 10^−4 to 10^−5, while the valence of mouse sera which immunized by allosteric peptide of colicin Ia and PMC-SA1 was 10^−2 to 10^−3.

CC1(C)S[C@@H]2[C@H](NC(=O)[C@H](N)c3ccccc3)C(=O)N2[C@H]1C(=O)[O-].[Na+] [Ampicillin, Ampicillin Sodium]
Scope of MIC (Baumanii): 16->128 | Scope of MIC (E. coli): 16->128

B1: wild-type colicin Ia: wild-type bacterial toxin colicin Ia secreted by E. coli (protein, UniProt P06716 1-626, looked up)
Colicin-Ia: MSDPVRITNPGAESLGYDSDGHEIMAVDIYVNPPRVDVFHGTPPAWSSFGNKTIWGGNEWVDDSPTRSDIEKRDKEITAYKNTLSAQQKENENKRTEAGKRLSAAIAAREKDENTLKTLRAGNADAADITRQEFRLLQAELREYGFRTEIAGYDALRLHTESRMLFADADSLRISPREARSLIEQAEKRQKDAQNADKKAADMLAEYERRKGILDTRLSELEKNGGAALAVLDAQQARLLGQQTRNDRAISEARNKLSSVTESLNTARNALTRAEQQLTQQKNTPDGKTIVSPEKFPGRSSTNHSIVVSGDPRFAGTIKITTSAVIDNRANLNYLLSHSGLDYKRNILNDRNPVVTEDVEGDKKIYNAEVAEWDKLRQRLLDARNKITSAESAVNSARNNLSARTNEQKHANDALNALLKEKENIRNQLSGINQKIAEEKRKQDELKATKDAINFTTEFLKSVSEKYGAKAEQLAREMAGQAKGKKIRNVEEALKTYEKYRADINKKINAKDRAAIAAALESVKLSDISSNLNRFSRGLGYAGKFTSLADWITEFGKAVRTENWRPLFVKTETIIAGNAATALVALVFSILTGSALGIIGYGLLMAVTGALIDESLVEKANKFWGI
valence of mouse sera (indirect ELISA) [1]: 10^−4 to 10^−5

B2: allosteric peptide of colicin Ia: wild-type Colicin Ia with mutations G11A, H22R, A26G, V31L and H40K; SEQ ID NO: 36 (protein)
chain: SDPVRITNPAAESLGYDSDGREIMGVDIYLNPPRVDVFKGTPPAWSSFGNKTIWGGNEWVDDSPTRSDIEKRDKEITAYKNTLSAQQKENENKRTEAGKRLSAAIAAREKDENTLKTLRAGNADAADITRQEFRLLQAELREYGFRTEIAGYDALRLHTESRMLFADADSLRISPREARSLIEQAEKRQKDAQNADKKAADMLAEYERRKGILDTRLSELEKNGGAALAVLDAQQARLLGQQTRNDRAISEARNKLSSVTESLNTARNALTRAEQQLTQQKNTPDGKTIVSPEKFPGRSSTNHSIVVSGDPRFAGTIKITTSAVIDNRANLNYLLSHSGLDYKRNILNDRNPVVTEDVEGDKKIYNAEVAEWDKLRQRLLDARNKITSAESAVNSARNNLSARTNEQKHANDALNALLKEKENIRNQLSGINQKIAEEKRKQDELKATKDAINFTTEFLKSVSEKYGAKAEQLAREMAGQAKGKKIRNVEEALKTYEKYRADINKKINAKDRAAIAAALESVKLSDISSNLNRFSRGLGYAGKFTSLADWITEFGKAVRTENWRPLFVKTETIIAGNAATALVALVFSILTGSALGIIGYGLLMAVTGALIDESLVEKANKFWGI
modifications: allosteric peptide of colicin Ia
valence of mouse sera (indirect ELISA) [1]: 10^−2 to 10^−3

B3: PMC-SA1: Staphylococcus aureus pheromone AgrD I linked to C-terminus of allosteric colicin Ia′; SEQ ID NO. 13; plasmid pBHC-SA1 (protein)
chain: SDPVRITNPAAESLGYDSDGREIMGVDIYLNPPRVDVFKGTPPAWSSFGNKTIWGGNEWVDDSPTRSDIEKRDKEITAYKNTLSAQQKENENKRTEAGKRLSAAIAAREKDENTLKTLRAGNADAADITRQEFRLLQAELREYGFRTEIAGYDALRLHTESRMLFADADSLRISPREARSLIEQAEKRQKDAQNADKKAADMLAEYERRKGILDTRLSELEKNGGAALAVLDAQQARLLGQQTRNDRAISEARNKLSSVTESLNTARNALTRAEQQLTQQKNTPDGKTIVSPEKFPGRSSTNHSIVVSGDPRFAGTIKITTSAVIDNRANLNYLLSHSGLDYKRNILNDRNPVVTEDVEGDKKIYNAEVAEWDKLRQRLLDARNKITSAESAVNSARNNLSARTNEQKHANDALNALLKEKENIRNQLSGINQKIAEEKRKQDELKATKDAINFTTEFLKSVSEKYGAKAEQLAREMAGQAKGKKIRNVEEALKTYEKYRADINKKINAKDRAAIAAALESVKLSDISSNLNRFSRGLGYAGKFTSLADWITEFGKAVRTENWRPLFVKTETIIAGNAATALVALVFSILTGSALGIIGYGLLMAVTGALIDESLVEKANKFWGIYSTCDFIM
modifications: The peptide of PMC-SA1
notes: Staphylococcus aureus pheromone AgrD I linked to C-terminus of allosteric colicin Ia′; 13; plasmid pBHC-SA1
valence of mouse sera (indirect ELISA) [1]: 10^−2 to 10^−3
